In the experiment the target is T-cell intracellular antigen-1 (TIA1) (UniProt P31483). Briefly: co-IP; Flag-TIA1 and GFP-TIA1 expressed in cells, with or without H2O2 treatment; lysates in lysis buffer (20 mM Tris-HCl pH 7.5, 1% Triton X-100, 0.5% deoxycholate, 137 mM NaCl), precleared, antibody 4 h at 4 °C, protein G-Sepharose, five washes.

These are yes or no findings as the source states them, for the method shown. Binding seen in cells or lysates may run through a third protein. Some entries that bind do so weakly or less than the wild type.

B1: T-cell intracellular antigen-1 (TIA1) (protein, UniProt P31483 1-386)
chain: MEDEMPKTLYVGNLSRDVTEALILQLFSQIGPCKNCKMIMDTAGNDPYCFVEFHEHRHAAAALAAMNGRKIMGKEVKVNWATTPSSQKKDTSSSTVVSTQRSQDHFHVFVGDLSPEITTEDIKAAFAPFGRISDARVVKDMATGKSKGYGFVSFFNKWDAENAIQQMGGQWLGGRQIRTNWATRKPPAPKSTYESNTKQLSYDEVVNQSSPSNCTVYCGGVTSGLTEQLMRQTFSPFGQIMEIRVFPDKGYSFVRFNSHESAAHAIVSVNGTTIEGHVVKCYWGKETLDMINPVQQQNQIGYPQPYGQWGQWYGNAQQIGQYMPNGWQVPAYGMYGQAWNQQGFNQTQSSAPWMGPNYGVQPPQGQNGSMLPNQPSGYRVAGYETQ
For B1, the binding entry is on record as “binds”.

The values are drawn from publication PMC4729832.
